Drawing on PMC11540318, this text covers binding for one molecule.

Protein sequences, listed by entry. Tags and fused reporters are not part of them.
UniProt P49657: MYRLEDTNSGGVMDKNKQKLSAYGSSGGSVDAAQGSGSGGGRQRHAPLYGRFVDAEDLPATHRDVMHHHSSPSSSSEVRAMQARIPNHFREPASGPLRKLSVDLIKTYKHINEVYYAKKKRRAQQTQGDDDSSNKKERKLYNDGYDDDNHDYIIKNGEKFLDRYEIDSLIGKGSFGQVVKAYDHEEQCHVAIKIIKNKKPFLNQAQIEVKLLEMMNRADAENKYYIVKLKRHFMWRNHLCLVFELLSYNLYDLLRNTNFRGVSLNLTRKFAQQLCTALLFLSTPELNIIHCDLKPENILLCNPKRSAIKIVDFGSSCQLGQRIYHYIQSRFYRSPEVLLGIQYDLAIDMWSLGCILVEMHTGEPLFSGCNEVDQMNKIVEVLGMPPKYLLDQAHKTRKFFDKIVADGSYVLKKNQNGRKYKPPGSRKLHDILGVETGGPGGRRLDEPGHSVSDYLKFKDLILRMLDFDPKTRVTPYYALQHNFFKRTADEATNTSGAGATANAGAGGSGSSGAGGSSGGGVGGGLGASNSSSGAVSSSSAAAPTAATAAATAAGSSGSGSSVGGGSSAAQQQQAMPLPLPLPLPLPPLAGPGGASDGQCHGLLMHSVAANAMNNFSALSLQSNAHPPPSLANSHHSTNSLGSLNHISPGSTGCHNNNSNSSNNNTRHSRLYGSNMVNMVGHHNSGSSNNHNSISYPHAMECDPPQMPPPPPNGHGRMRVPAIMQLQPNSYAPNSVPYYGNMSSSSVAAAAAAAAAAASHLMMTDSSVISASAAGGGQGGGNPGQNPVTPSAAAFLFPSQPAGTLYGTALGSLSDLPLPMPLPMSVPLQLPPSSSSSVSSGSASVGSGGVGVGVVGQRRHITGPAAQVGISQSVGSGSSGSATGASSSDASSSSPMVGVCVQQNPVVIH

The target in this test is Mnb-TagRFP-T (Minibrain, endogenously tagged) (Drosophila (endogenous in embryos)) (UniProt P49657). The experiment in a line: affinity purification with mass spectrometry; Lysate of embryos of the Mnb-TagRFP-T line (yw as control) on RFP-trap agarose beads, 2 h at 4°C, lysis buffer with 0.5% IGEPAL, 125 mM NaCl, pH 7.5; nanoLC-MS/MS; SAINT score above 0.8 counted as interactor.

These are yes or no findings as the source states them, for the method shown. In cells and extracts the contact can be indirect. Here binding means that the protein was enriched with, or labelled near, the bait; the list need not be complete.

B1: Ral interacting protein (Rlip), endogenous (protein, UniProt Q9VDG2 1-625)
chain: MDFDSPEEKEFPGLYASEAADAKSRKSKEESDFSEDHDHSKKDLLIGRRKDKKEKGKDRGYAALEGESSPEEELDTKSPSKSKKSKTFKFTSSKSKEKREKSRDKSEKDSKHAEEEPSVSHKVKEKERDKEKDRDEPKKKDKEEKRKEKDKKADKKDKKDKKSKQLSQQQDDVSAAEEVLALGYPVFGVSVSLATERSRCHDGVDIPLVVRDCIDFLQDHLKCEQIYKIEPIKTRLMHFKRLYNNREHDSAVDELNLPTACSLLKLFLRELPEPLLTTDLVARFEEVASHPKVTTQQAELQQLLEQLPKCNRTLLAWVLLHFDAVIQQERHNKLNAQSLAMLLSPTLQMSHRLMVALLCHCNNLFADVQLIKYVPPLTSTSPKLPDTPEDIQTELRKQDSLLSQIHSEMNAGFITKKREEQLWEVQRIITQLKRKLRTFEKKQEKTAEEVDNSSSAPPAVASEDTTDSKPAGTPAVSTNNSISQEEPKTDTLTPKDAPNDFTIDPSTGFILLPKSNPHRENLLRLQIEYDELMEWQNELKARIVAERNEVYRLKQLYEQQSINSQMASLASGSQAPPESDYERIIEHYTRENALLEHKKNMLGMELKEERRACIALQVELRLQQF
As for B1, the binding entry was “binds”.
